{"source": "PubChem BioAssay AID2685", "about": "(National Center for Advancing Translational Sciences (NCATS), 2010)", "note": "The campaign covered roughly 320,000 compounds. About 2,100 (0.66%) were called active. Inconclusive results, whose numbers are uncertain, are shown with a selection of clear calls. Calls come from the whole dose curve; as a rule, active = well fitted inhibition curve with a large enough effect in the signal ratio, with a control signal flat (not every such curve was filed as active); inconclusive = small, poorly fitted or top-dose-only effect, or effect the other way, or a change in a side signal; inactive = flat fitted curve, though single readings scatter; the % refers to the signal ratio. Where the call is inconclusive, the potency comes from a doubtful curve fit. % is set by controls: 0 for no effect and ±100 for the full control effect; potency is the fitted concentration of half-maximal effect.", "data": [{"assay": "qHTS Assay for Lipid Storage Modulators in Drosophila S3 Cells", "details": "BODIPY lipid droplet fluorescence, 18-24 h, cells fed with added oleic acid; lipid storage change, negative = inhibition: at 46.1 µM (top of the series) unless noted", "method_in_brief": "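Laser-scanning cytometry quantifies lipid droplet accumulation (500–530 nm total intensity; droplet/cell object ratio) in oleic acid-fed (400 uM added) Drosophila S3 cells treated with a concentration series. 20 uM Triacsin C defined 100% inhibition.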", "values": [{"smiles": "CCN(CC)S(=O)(=O)c1ccc(NC(=O)CSc2nnc(-c3cccc(OC)c3)n2C)cc1", "Potency": "inconclusive: 4.61 µM [cytotoxic, full curve]"}, {"smiles": "O=c1[nH]c(CSc2ncc(C(F)(F)F)cc2Cl)nc2cc(C(F)(F)F)ccc12", "Potency": "inconclusive: 11.6 µM [activator, partial curve]"}, {"smiles": "CC(C)(C)OC(=O)NCCCCCc1cn(CC(=O)NCCCCCCCCCCC(=O)N2CCN(C(=O)OC(C)(C)C)CC2)nn1", "lipid storage change, negative = inhibition": "inconclusive: -12.8%"}, {"smiles": "Cc1ccc(NS(=O)(=O)c2ccc(C(=O)OCC(=O)N3CCCCC3)cc2)cc1", "Potency": "inconclusive: 7.31 µM [falling, partial curve]"}, {"smiles": "CCOC(=O)c1c(NC(=O)c2ccno2)c2cc([N+](=O)[O-])ccc2n1C", "lipid storage change, negative = inhibition": "inconclusive: -8.35%"}, {"smiles": "C=CCn1c(-c2cccc(Cl)c2)n[nH]c1=S", "lipid storage change, negative = inhibition": "inconclusive: 23.7%"}, {"smiles": "CC(C)n1cnnc1SCC(=O)Nc1ccc(Br)cc1F", "Potency": "inconclusive: 6.51 µM [activator, single point]"}, {"smiles": "CCC(=O)Nc1nc2ccc(NC(=O)COc3ccccc3)cc2s1", "lipid storage change, negative = inhibition": "inconclusive: 15%"}, {"smiles": "COc1cc(-c2cc(C(=O)Nc3ccc(S(=O)(=O)Nc4ncccn4)cc3)c3ccccc3n2)cc(OC)c1OC", "lipid storage change, negative = inhibition": "inconclusive: -23.4%"}, {"smiles": "Cc1ccc2c(c1)N(C(=O)CCC(=O)Nc1ccccc1Br)CC(C)O2", "note": "(centres undefined)", "lipid storage change, negative = inhibition": "inconclusive: -3.54%"}, {"smiles": "Cc1ccc(CNC(=O)C2C3C=CC4(CN(Cc5cccnc5)C(=O)C24)O3)cc1", "note": "(centres undefined)", "lipid storage change, negative = inhibition": "inconclusive: -15.2%"}, {"smiles": "COCCOC(=O)C1=C(C)NC(=O)NC1c1ccc(Cl)cc1", "note": "(centres undefined)", "lipid storage change, negative = inhibition": "inconclusive: 10.6%"}, {"smiles": "Cc1[nH]c2c(Cl)cccc2c1CCNC(=O)C1CCCCC1C(=O)OCC(F)(F)F", "note": "(centres undefined)", "Potency": "inconclusive: 5.8 µM [activator, partial curve, poor fit]"}, {"smiles": "COc1cc(C(=O)Nn2c(C)nc3ccccc3c2=O)cc(OC)c1OC", "lipid storage change, negative = inhibition": "inconclusive: -49.7%"}, {"smiles": "N#Cc1ccc(N2CCN(C(=O)c3cccc(F)c3)CC2)c(F)c1", "lipid storage change, negative = inhibition": "inconclusive: 26.1%"}, {"smiles": "C/C(=N\\NC(=O)CNc1ccc(F)cc1)c1cc2ccccc2o1", "Potency": "inconclusive: 29.1 µM [activator, single point]"}, {"smiles": "O=C(CCC(=O)N(CC(=O)NC1CCCCC1)Cc1cccs1)Nc1nccs1", "lipid storage change, negative = inhibition": "inactive"}, {"smiles": "Cc1nc2sc(C(N)=O)c(N)c2c2c1CCCC2", "Potency": "inconclusive: 18.4 µM [activator, single point]"}, {"smiles": "COCCn1c(C)cc(C(=O)COC(=O)c2[nH]c(C)c(C(C)=O)c2C)c1C", "lipid storage change, negative = inhibition": "inconclusive: -38.9%"}, {"smiles": "CCCc1nc2ccccc2c(=O)n1NC(=O)c1c(O)c2ccccc2n(C)c1=O", "lipid storage change, negative = inhibition": "inconclusive: 33.3%"}, {"smiles": "O=C(OCC(=O)c1ccc(S(=O)(=O)N2CCCC2)cc1)C1=COCCO1", "Potency": "inconclusive: 29.1 µM [falling, single point]"}, {"smiles": "C(=C\\c1ccccn1)/c1cccnc1", "lipid storage change, negative = inhibition": "inconclusive: 4.46%"}, {"smiles": "CCOC(=O)c1c(C)nc2c3ccccc3ccn12", "lipid storage change, negative = inhibition": "inactive"}, {"smiles": "NCc1cccc(CNc2ccc([N+](=O)[O-])cc2C(N)=O)c1", "Potency": "inconclusive: 29.1 µM [falling, single point]"}, {"smiles": "Cc1ncc(CO)c(/C=N/NC(=O)c2ccccc2Br)c1O", "lipid storage change, negative = inhibition": "inactive"}, {"smiles": "COc1cc(CN2CCN(c3cccc(C)c3C)CC2)cc(Br)c1O", "lipid storage change, negative = inhibition": "inconclusive: -6.07%"}, {"smiles": "CCC(=O)Nc1cc(C(=O)OCC(=O)c2ccccc2)ccc1C", "lipid storage change, negative = inhibition": "inconclusive: 25.6%"}, {"smiles": "CC1CCCCN1C(=O)CSCC(=O)Nc1nc(-c2cccs2)cs1", "note": "(centres undefined)", "lipid storage change, negative = inhibition": "inconclusive: -28.3%"}, {"smiles": "COC(=O)C1C(c2ccccc2)NC(=O)NC1(O)C(F)(F)Cl", "note": "(centres undefined)", "lipid storage change, negative = inhibition": "inconclusive: -12.6%"}, {"smiles": "COc1ccc(S(=O)(=O)N(CC(=O)N2CCN(C)CC2)c2ccc(C)cc2)cc1OC", "lipid storage change, negative = inhibition": "inconclusive: 4.43%"}, {"smiles": "O=C(COC(=O)c1cncc(Br)c1)NCc1ccc2c(c1)OCO2", "Potency": "inconclusive: 6.51 µM [falling, single point]"}, {"smiles": "COc1ccc(C2CC(c3ccccc3)=NN2C(=O)CSc2ncccn2)cc1", "note": "(centres undefined)", "Potency": "active: 18.4 µM"}, {"smiles": "CC1(C)Cc2c(cnn2-c2ccccc2)C(=O)/C1=N\\NC(=O)c1ccccc1N", "lipid storage change, negative = inhibition": "inconclusive: -19.5%"}, {"smiles": "CCCCn1c(N)c(N(Cc2ccccc2OC)C(=O)c2c(CC)noc2C)c(=O)[nH]c1=O", "Potency": "inconclusive: 0.731 µM [activator, single point]"}, {"smiles": "Cn1c(Cc2ccccc2)nnc1SCC(=O)Nc1ccc2c(c1)OCCO2", "lipid storage change, negative = inhibition": "inconclusive: -7.07%"}, {"smiles": "O=C(CCC(=O)Nc1ccc(F)cc1)N/N=C/c1cccs1", "lipid storage change, negative = inhibition": "inconclusive: 29.1%"}, {"smiles": "CN(C)/C=C/C(=O)/C=C/c1ccc(Cl)cc1Cl", "lipid storage change, negative = inhibition": "inconclusive: 15.1%"}, {"smiles": "CCC(C)(C(=O)NC1CCCCC1)N(C)C(=O)c1ccccn1", "note": "(centres undefined)", "lipid storage change, negative = inhibition": "inconclusive: -18.7%"}, {"smiles": "Cc1cccc(C(=O)N/C(=C\\c2ccco2)C(=O)N2CCCC2)c1", "Potency": "inconclusive: 0.58 µM [activator, full curve]"}, {"smiles": "O=S(=O)(c1ccc(Cl)cc1)N1CN(CC2CCCO2)c2nc3ccccc3nc21", "note": "(centres undefined)", "lipid storage change, negative = inhibition": "inconclusive: 33.8%"}, {"smiles": "CC(C)Sc1nc2c(c(=O)n1C)SC(C)C2", "note": "(centres undefined)", "lipid storage change, negative = inhibition": "inconclusive: 34.4%"}, {"smiles": "O=S(=O)(Nc1ccc2nc(-c3ccc(Br)o3)[nH]c2c1)c1ccccc1", "lipid storage change, negative = inhibition": "inconclusive: 54.8%"}, {"smiles": "O=c1[nH]c(/C=C/c2ccccc2)c([N+](=O)[O-])c(=O)[nH]1", "Potency": "inconclusive: 0.0731 µM [falling, full curve, poor fit]"}, {"smiles": "Cc1cccc(-c2ccc(NC(=O)C3CCN(CC4CC4)CC3)cc2)c1", "lipid storage change, negative = inhibition": "inconclusive: 1.77%"}, {"smiles": "CCCC(=O)Nc1ccc(-c2csc(-c3cccnc3)n2)cc1", "Potency": "inconclusive: 20.6 µM [falling, single point]"}, {"smiles": "c1ccc(-n2c(Cc3cn4ccsc4n3)nnc2N2CCOCC2)cc1", "lipid storage change, negative = inhibition": "inconclusive: -12.6%"}, {"smiles": "Cc1ccc(S(=O)(=O)Nc2ccc(-c3nc4cc(NS(=O)(=O)c5ccc(C)cc5)ccc4o3)cc2)cc1", "lipid storage change, negative = inhibition": "inconclusive: -52.9%"}, {"smiles": "Cc1ccc(-c2nn(-c3ccccc3)cc2C(=O)NCC2CCCO2)cc1", "note": "(centres undefined)", "lipid storage change, negative = inhibition": "inconclusive"}, {"smiles": "O=C(Nc1ccc(O)cc1)c1ccc2c(c1)C(=O)N(Cc1cccnc1)C2=O", "Potency": "inconclusive: 3.98 µM [activator, full curve, poor fit]"}, {"smiles": "Cc1ccc(S(=O)(=O)c2nc(-c3ccccc3)oc2NCc2cccnc2)cc1", "Potency": "inconclusive: 1.16 µM [activator, partial curve]"}, {"smiles": "CC(OC(=O)c1cc2ccccc2o1)C(=O)Nc1ccc(N2CCOCC2)cc1", "note": "(centres undefined)", "lipid storage change, negative = inhibition": "inconclusive: 14.3%"}, {"smiles": "COc1ccc2[nH]cc(CCNC(=O)C3CCCNC3=O)c2c1", "note": "(centres undefined)", "lipid storage change, negative = inhibition": "inconclusive: -18%"}, {"smiles": "CCN1C(=O)C(CC(=O)Nc2ccc(Br)cc2)N(CCCc2ccccc2)C1=S", "note": "(centres undefined)", "lipid storage change, negative = inhibition": "inconclusive: -57.9%"}, {"smiles": "COc1ccc(CCNC(=O)CN2C(=O)NC(CCSC)C2=O)cc1", "note": "(centres undefined)", "lipid storage change, negative = inhibition": "inconclusive: -0.409%"}, {"smiles": "COc1ccc(C(=O)Nc2ccnn2C2CCN(Cc3cccnc3)CC2)cc1", "lipid storage change, negative = inhibition": "inconclusive: 47.5%"}, {"smiles": "Cc1ccc(S(=O)(=O)NCc2n[nH]c(=S)n2C)cc1", "lipid storage change, negative = inhibition": "inconclusive: -0.15%"}, {"smiles": "COc1ccc(-c2cc(C(=O)Nc3cccnc3Cl)no2)cc1OC", "lipid storage change, negative = inhibition": "inconclusive: 100%"}, {"smiles": "O=C(NCCCN1CCOCC1)c1cccc(S(=O)(=O)N2CCN(c3ccccc3)CC2)c1", "lipid storage change, negative = inhibition": "inconclusive"}, {"smiles": "CC(OC(=O)CCN=C1NS(=O)(=O)c2ccccc21)C(=O)NCc1ccccc1", "note": "(centres undefined)", "lipid storage change, negative = inhibition": "inconclusive: 1.86%"}, {"smiles": "COc1ccc(C)c2sc(N(CCN(C)C)C(=O)c3ccc4ccccc4c3)nc12", "lipid storage change, negative = inhibition": "inconclusive: -49.7%"}, {"smiles": "Cc1ccc2c(c1)/C(=C/c1ccccc1C)C(=O)N2", "lipid storage change, negative = inhibition": "inconclusive: -117%"}, {"smiles": "O=C(NCCc1ccc2c(c1)OCCO2)c1cc2ccccc2o1", "Potency": "inconclusive: 0.146 µM [activator, full curve, poor fit]"}, {"smiles": "S=C(Nc1cccnc1)NC1CCCC1", "lipid storage change, negative = inhibition": "inconclusive: 1.53%"}, {"smiles": "CC(=O)Nc1ccccc1NC(=O)c1cc(C)ccc1C", "lipid storage change, negative = inhibition": "inconclusive: 15.1%"}, {"smiles": "CN(C)/C=N/C(=S)Nc1ccc(Br)cc1F", "lipid storage change, negative = inhibition": "inconclusive: 262%"}, {"smiles": "Cc1ccc(C2(c3ccccc3)NC(=O)N(CC(=O)NC3CCCCC3)C2=O)cc1C", "note": "(centres undefined)", "lipid storage change, negative = inhibition": "inconclusive"}, {"smiles": "CC1Cc2ccccc2N1C(=O)COC(=O)c1cccc(Br)c1", "note": "(centres undefined)", "Potency": "inconclusive: 2.59 µM [activator, partial curve]"}, {"smiles": "C=CCOc1ccc(/C=N/N2C(=O)C(CC(=O)Nc3ccc(F)cc3F)SC2=NC)cc1", "note": "(centres undefined)", "Potency": "active: 18.4 µM"}, {"smiles": "COc1ccc(S(=O)(=O)N2CCc3ccccc32)cc1C(=O)NCc1ccco1", "lipid storage change, negative = inhibition": "inconclusive"}, {"smiles": "COc1ccc(N2CCN(c3oc(COc4ccccc4Cl)nc3C#N)CC2)cc1", "lipid storage change, negative = inhibition": "inconclusive: 70.7%"}, {"smiles": "Cc1ccc(S(=O)(=O)N2CCN(Cc3ccco3)CC2)cc1C", "lipid storage change, negative = inhibition": "inconclusive: 84.6%"}, {"smiles": "Cn1c(N)nc2ccccc2c1=O", "lipid storage change, negative = inhibition": "inconclusive: -64.2%"}, {"smiles": "O=C(c1cnccn1)N(c1ccccc1)C1(C(=O)NC2CCCCC2)CCCCC1", "lipid storage change, negative = inhibition": "inconclusive: -28.9%"}, {"smiles": "Oc1ccc(CNc2ccccc2F)c2cccnc12", "lipid storage change, negative = inhibition": "inconclusive: -0.477%"}, {"smiles": "COc1ccc(-n2c(=S)[nH]c3cc(C(=O)Nc4ccc(C)c(F)c4)ccc3c2=O)c(OC)c1", "lipid storage change, negative = inhibition": "inconclusive: -100%"}, {"smiles": "CN1CCN(C(=O)c2cccc(S(=O)(=O)N3CCCCC3)c2)CC1", "lipid storage change, negative = inhibition": "inconclusive: -27.8%"}, {"smiles": "Cc1ccnc(NC(=O)CCC(=O)N(CC(=O)NC(C)(C)C)Cc2ccc3c(c2)OCO3)c1", "Potency": "active: 23.1 µM"}, {"smiles": "CCC(C)n1c(C)nc2c(c1=O)c1nc3ccccc3nc1n2-c1ccc2c(c1)OCCO2", "note": "(centres undefined)", "lipid storage change, negative = inhibition": "inconclusive: 11.4%"}, {"smiles": "COCCn1c(=O)[nH]c2cc(C(=O)NC(C)C)ccc2c1=O", "lipid storage change, negative = inhibition": "inactive"}]}]}
